In PubChem BioAssay AID504834 (National Center for Advancing Translational Sciences (NCATS), 2011):
In all, about 320,000 compounds went through this assay and about 22,000 (6.9%) were called active. Inconclusive results, whose numbers are uncertain, are shown with a selection of clear calls. The call rests on the fitted dose curve; in most records, active means well fitted inhibition curve with a large enough effect; inconclusive means small, poorly fitted or top-dose-only effect, or another doubt; inactive means no such curve, though single readings can be large or run the other way. Where the call is inconclusive, the potency comes from a doubtful curve fit.

test: Primary qHTS for delayed death inhibitors of the malarial parasite plastid, 96 hour incubation; settings: P. falciparum luciferase reporter growth; series mostly up to 28.7 µM
Method in brief: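 Parasite growth measured via integrated firefly luciferase reporter in P. falciparum. Infected erythrocytes at 2% hematocrit, 0.05% parasitemia final were treated 96 hours at 37 C under 5% CO2, and luminescence was read.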
Potency means the concentration at half of the fitted maximal effect.

Structure (SMILES)	Potency
Cc1cc(C)c2nc(NNC(=O)c3cc(=O)c4ccccc4o3)sc2c1	inconclusive: 18.5 µM [inhibitor, single point]
COc1ccc(N(C(=O)c2snc(C(N)=O)c2N)C(C(=O)NC2CCCC2)c2cc(OC)ccc2OC)cc1 (centres undefined)	inconclusive: 6.57 µM [inhibitor, partial curve, poor fit]
CCOc1ccc(NC(=O)c2c(NC(=O)CN3CCCC3)sc3c2CCC3)cc1	inconclusive: 11.7 µM [inhibitor, partial curve, poor fit]
O=c1[nH]n(-c2ccccc2)c(=O)c(Cl)c1Cl	inconclusive: 0.0657 µM [inhibitor, full curve, poor fit]
O=C(Cn1cc2c(n1)CCCC2)NCc1ccccn1	inactive
CCCCNC(=O)c1nn2c(C(F)(F)F)cc(-c3ccc(OC)cc3)nc2c1Br	inconclusive: 4.15 µM [inhibitor, single point]
Cc1ccc(CN(C)C(=O)COc2ccc(S(=O)(=O)N3CCCC3)cc2[N+](=O)[O-])c(C)c1	inconclusive: 13.1 µM [inhibitor, single point]
CCC(CC)C(=O)Nc1cccc(-c2ccc3nncn3n2)c1	inactive
COc1ccccc1CN(C)CC(=O)Nc1ccccc1-c1ccccc1	inconclusive: 18.5 µM [inhibitor, single point]
COCCn1c(SCc2nc(N)nc(Nc3ccccc3C)n2)nc2ccccc2c1=O	inconclusive: 1.04 µM [inhibitor, partial curve, poor fit]
C/C(=N\NC(=O)COc1cccc2ccccc12)c1cccs1	inconclusive: 10.4 µM [inhibitor, single point]
C=CCSc1nnc(-c2nnc(SCC=C)n2-c2ccccc2)n1-c1ccccc1	active: 6.57 µM
Cc1ccc(CN2CCSc3ccc(C(=O)NCc4cccnc4)cc32)cc1	inactive
COc1ccccc1C1SCCN1S(=O)(=O)c1cccc(C(F)(F)F)c1 (centres undefined)	inconclusive: 18.5 µM [inhibitor, single point]
O=C(COc1ccccc1[N+](=O)[O-])Nc1cccc(S(=O)(=O)NC2=NCCCCC2)c1	inconclusive: 18.5 µM [inhibitor, single point]
NC(N)=NNC(=O)c1ccccc1Cl	inconclusive: 18.5 µM [inhibitor, single point]
CCC(=O)Nc1ccc(NC(=O)c2oc3ccccc3c2C)cc1	inconclusive: 5.22 µM [inhibitor, partial curve, poor fit]
COc1ccc(Cl)cc1NC(=O)CN1CCN(Cc2ccccc2)CC1	inactive
CC1CC1C(=O)OCC(=O)Nc1cccc(Br)c1 (centres undefined)	inactive
CC1CCN(C(=O)CSc2nnc(-c3cccs3)o2)CC1	inconclusive: 2.62 µM [inhibitor, full curve, poor fit]
CC1CCN(C(=O)c2[nH]cnc2C(=O)NC2CCN(C(=O)OC(C)(C)C)CC2)CC1	inconclusive: 13.1 µM [inhibitor, single point]
CN(C)S(=O)(=O)c1cccc(COC(=O)c2ccc3c(c2)OCO3)c1	inactive
COc1ccc(OC)c(C(=O)NC(CC(N)=O)c2ccc(N3CCN(c4ccc(F)cc4)CC3)c([N+](=O)[O-])c2)c1 (centres undefined)	inactive

Three of the compounds above, as comma-separated lines.
Structure (SMILES),Potency
COc1ccc(N(C(=O)c2snc(C(N)=O)c2N)C(C(=O)NC2CCCC2)c2cc(OC)ccc2OC)cc1 (centres undefined),"inconclusive: 6.57 µM [inhibitor, partial curve, poor fit]"
CCC(=O)Nc1ccc(NC(=O)c2oc3ccccc3c2C)cc1,"inconclusive: 5.22 µM [inhibitor, partial curve, poor fit]"
COc1ccc(Cl)cc1NC(=O)CN1CCN(Cc2ccccc2)CC1,inactive

Later entries:

Structure (SMILES)	Potency
O=C(O)C1=C[C@H](c2ccc(C(F)(F)F)cc2)C[C@H](OCc2ccc(CO)cc2)O1	inactive
Oc1ccccc1CNc1ccc(OC(F)(F)F)cc1	inconclusive: 10.4 µM [inhibitor, single point]
CCCC1CCC(c2nc(-c3cccnc3)no2)CC1 (centres undefined)	inactive
CN(C)C(CNC(=O)CCNC(=O)c1ccc(Br)cc1)c1ccco1 (centres undefined)	inconclusive: 11.7 µM [inhibitor, partial curve, poor fit]
COc1ccccc1NC(=O)CCCCCN1C(=O)c2cccc3cccc(c23)C1=O	inconclusive: 8.28 µM [inhibitor, partial curve, poor fit]
CCCNC(=O)N1CCN(C(c2ccccc2)c2ccccc2)CC1	inactive
CCCNC(=O)Cn1cnc2sc(C(=O)NCCCN3CCOCC3)c(C)c2c1=O	inconclusive: 16.5 µM [inhibitor, single point]
CN1CCN(/N=C/c2ccc(N(C)c3ccccc3)cc2)CC1	inactive
CC(=O)N1c2ccc(S(=O)(=O)N3CCC(C(=O)Nc4cccc(F)c4)CC3)cc2CC1C (centres undefined)	inconclusive: 9.28 µM [inhibitor, partial curve, poor fit]
O=C(CSc1nnc(-c2cccnc2)n1Cc1ccco1)c1ccc2ccccc2c1	inconclusive: 1.17 µM [inhibitor, partial curve]
N#CC1=C(N)OC2=C(C(=O)CC(c3ccccc3)C2)C1c1ccoc1 (centres undefined)	inconclusive: 18.5 µM [inhibitor, single point]
Cc1ccc(C(=O)CSc2nc3ccccc3o2)cc1	inconclusive: 20.8 µM [inhibitor, partial curve, poor fit]
Cc1nc2cc([N+](=O)[O-])ccc2c(=O)n1-c1ccc(Br)cc1	active: 13.1 µM
O=C(NC(=S)Nc1ccccc1N1CCCCC1)c1cccs1	inactive
C=CCSc1nnc(-c2cnn(-c3ccccc3)c2-n2cccc2)n1C	inconclusive: 11.7 µM [inhibitor, single point]
O=C(Nc1cccc(Cl)c1)c1cccc(Oc2ccc([N+](=O)[O-])cc2Cl)c1	inconclusive: 7.38 µM [inhibitor, partial curve]
Cc1ccc(NC(=O)c2ccc(Cl)c(S(=O)(=O)N3CCCCC3)c2)nc1	active: 10.4 µM
COc1ccc(OC)c(C2C3=C(N=C4SCC(=O)N42)c2ccccc2CC3)c1 (centres undefined)	inconclusive: 18.5 µM [inhibitor, single point]
COc1cc(C(=O)NS(=O)(=O)c2ccccc2C)ccc1Cc1cn(C)c2ccc(NC(=O)OC3CCCC3)cc12	inconclusive: 19 µM [inhibitor, single point]
CN(C)CCCNS(=O)(=O)c1ccc(-n2nnc3ccccc32)c([N+](=O)[O-])c1	inconclusive: 0.0828 µM [inhibitor, full curve, poor fit]
CC(=O)N1CCc2cc(S(=O)(=O)NCCCN3CCCCC3)ccc21	inconclusive: 16.5 µM [inhibitor, single point]
CCC(=O)N1CCN(c2c(Cl)cccc2[N+](=O)[O-])CC1	inconclusive: 11.7 µM [inhibitor, partial curve]
COc1ccc(Cn2c(CCC(=O)Nc3ccccc3)nc3cccnc32)cc1	inconclusive: 7.38 µM [inhibitor, partial curve, poor fit]

Structure (SMILES)	Potency
Cc1cccc(NC(=O)CN2CCN(C(=O)C3CCN(C(=O)/C=C/c4ccccc4)CC3)CC2)c1C	inactive
CC1=NN(C(N)=S)C(=O)C1N=Nc1cccc(C)c1 (centres undefined)	inconclusive: 18.5 µM [inhibitor, single point]
Clc1cccc(OCCCN2CCCC2)c1Cl	inconclusive: 18.5 µM [inhibitor, single point]
N/C(=N\OC(=O)COc1ccc(Cl)cc1Cl)c1ccccn1	inactive
CCOC(=O)N1CCN(S(=O)(=O)c2ccc(C)cc2)C1c1ccccc1 (centres undefined)	inconclusive: 18.5 µM [inhibitor, single point]
CCCCOC(=O)c1ccc(NC(=O)c2ccoc2C)cc1	inactive
O=c1c2ccccc2c2ccccc2c(=O)n1-c1ccccc1	inconclusive: 11.7 µM [inhibitor, single point]
Oc1ccc(/C=N/Nc2ccc(C(F)(F)F)cn2)cc1	inactive
CCOC(=O)C1(Cc2ccccc2C)CCCN(C(=O)c2ccccn2)C1 (centres undefined)	inconclusive: 18.5 µM [inhibitor, single point]
CCN(Cc1ccncc1)C(=O)c1ccccc1NS(=O)(=O)c1ccc(F)cc1	inactive
Cc1cc(=O)[nH]c(SCC(=O)Nc2ccnc3ccccc23)n1	inconclusive: 18.5 µM [inhibitor, single point]
CCNC(C(=O)c1c[nH]c2c(CC)cccc12)c1ccccc1 (centres undefined)	inconclusive: 11.7 µM [inhibitor, single point]
O=C(CCNS(=O)(=O)c1cccc2nonc12)NC1CCCc2ccccc21 (centres undefined)	inconclusive: 4.15 µM [inhibitor, partial curve, poor fit]
COc1ccc(NC(=O)Nc2ccccc2F)cc1Cl	inconclusive: 11.7 µM [inhibitor, single point]
CCOC(=O)c1c(C)[nH]c(C)c1S(=O)(=O)N(C)CC(=O)Nc1cccc(F)c1	inactive
CCNC(=O)CCSc1nnc(-c2ccco2)o1	inactive
COc1ccc(-c2cc(-c3nnc(COC(=O)C4CC4C)o3)c3ccccc3n2)cc1OC (centres undefined)	inconclusive: 11.7 µM [inhibitor, single point]
Cc1cccc(OCCCC(=O)N2CCCc3ccccc32)c1C	inconclusive: 18.5 µM [inhibitor, single point]
O=C(CSc1nnc(-c2ccc(F)cc2)o1)N1CCCCC1	inactive
CN1CCC(=NNC(=O)C(=O)NCc2ccccc2)CC1	inactive
N=c1c2c(-c3ccccc3)c(-c3ccccc3)n(Cc3ccco3)c2ncn1CCCn1ccnc1	inconclusive: 10.4 µM [inhibitor, single point]
Cc1ccc(NC(=O)c2cccc3c2C(=O)N(C2CCCCC2)C3)c(C)c1	inconclusive: 7.38 µM [inhibitor, partial curve]
COC(=O)CS(=O)(=O)c1ccsc1C(=O)Nc1ccc(F)c(F)c1	inconclusive: 1.85 µM [inhibitor, full curve]
